Assay results taken from PMC6460569.
Results are given in words; binding and its absence hold for the method and conditions named. In cells and extracts the contact can be indirect. Some entries that bind do so weakly or less than the wild type.

By UniProt entry, the sequences of proteins in these tests, tags left out.
UniProt P25911: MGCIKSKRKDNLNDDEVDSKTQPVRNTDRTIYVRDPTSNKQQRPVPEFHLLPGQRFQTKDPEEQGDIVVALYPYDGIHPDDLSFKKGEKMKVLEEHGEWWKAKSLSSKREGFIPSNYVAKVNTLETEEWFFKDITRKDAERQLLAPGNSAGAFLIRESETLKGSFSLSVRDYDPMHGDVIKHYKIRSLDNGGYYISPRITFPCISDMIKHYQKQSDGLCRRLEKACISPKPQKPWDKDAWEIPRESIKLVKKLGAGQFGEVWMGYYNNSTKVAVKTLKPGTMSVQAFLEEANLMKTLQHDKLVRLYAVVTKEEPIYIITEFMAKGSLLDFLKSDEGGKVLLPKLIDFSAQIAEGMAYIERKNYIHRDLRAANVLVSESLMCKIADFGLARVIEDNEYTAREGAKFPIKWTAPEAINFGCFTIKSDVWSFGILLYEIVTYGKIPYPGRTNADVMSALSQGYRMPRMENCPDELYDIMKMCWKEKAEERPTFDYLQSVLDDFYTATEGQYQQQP

Assays:
[1] = molecular target: T1, FcεRIβ (mouse (endogenous in BALB/C mouse tissue)) (UniProt P20490); experiment: co-IP; immunoprecipitation of tumor tissue lysates (B16F1 tumors in BALB/C mice after passive systemic anaphylaxis); with or without p62 siRNA or miR-135-5p mimic
T1 sequence: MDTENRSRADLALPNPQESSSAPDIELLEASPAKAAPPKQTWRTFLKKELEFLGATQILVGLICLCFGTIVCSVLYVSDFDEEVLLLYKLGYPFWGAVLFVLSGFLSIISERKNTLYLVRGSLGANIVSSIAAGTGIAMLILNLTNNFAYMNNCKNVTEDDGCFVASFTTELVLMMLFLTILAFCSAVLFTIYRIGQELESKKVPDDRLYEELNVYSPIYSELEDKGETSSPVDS

[2] = molecular target: T1, FcεRIβ (mouse (endogenous in BALB/C mouse tissue)); experiment: co-IP; immunoprecipitation of ear tissue lysates of BALB/C mice, passive cutaneous anaphylaxis (IgE, then DNP-HSA); with or without p62 siRNA, miR-135-5p mimic or GW4869
[3] = molecular target: T1, FcεRIβ (mouse (endogenous in BALB/C mouse tissue)); experiment: co-IP; immunoprecipitation of lung tumor tissue lysates (B16F1 lung metastasis in BALB/C mice after passive systemic anaphylaxis); with or without p62 siRNA or miR-135-5p mimic
[4] = molecular target: T1, FcεRIβ (mouse (endogenous in BALB/C mouse tissue)); experiment: co-IP; immunoprecipitation of tissue lysates of BALB/C mice, passive systemic anaphylaxis (IgE, then DNP-HSA); with or without p62 siRNA or GW4869; tissue not named
[5] = molecular target: T1, FcεRIβ (mouse (endogenous in BALB/C mouse tissue)); experiment: as above; remark: listed apart in the source

Measured: binding

Lyn (from UniProt P25911 1-512) (enzyme)
binds: [1] | [2] | [3] | [4]

B1: SOCS1 (protein, UniProt O35716 1-212)
chain: MVARNQVAADNAISPAAEPRRRSEPSSSSSSSSPAAPVRPRPCPAVPAPAPGDTHFRTFRSHSDYRRITRTSALLDACGFYWGPLSVHGAHERLRAEPVGTFLVRDSRQRNCFFALSVKMASGPTSIRVHFQAGRFHLDGSRETFDCLFELLEHYVAAPRRMLGAPLRQRRVRPLQELCRQRIVAAVGRENLARIPLNPVLRDYLSSFPFQI
binds: [5] | [2] | [3]

B2: Transglutaminase II (TGaseII) (enzyme, UniProt P21981 1-686)
chain: MAEELLLERCDLEIQANGRDHHTADLCQEKLVLRRGQRFRLTLYFEGRGYEASVDSLTFGAVTGPDPSEEAGTKARFSLSDNVEEGSWSASVLDQQDNVLSLQLCTPANAPIGLYRLSLEASTGYQGSSFVLGHFILLYNAWCPADDVYLDSEEERREYVLTQQGFIYQGSVKFIKSVPWNFGQFEDGILDTCLMLLDMNPKFLKNRSRDCSRRSSPIYVGRVVSAMVNCNDDQGVLLGRWDNNYGDGISPMAWIGSVDILRRWKEHGCQQVKYGQCWVFAAVACTVLRCLGIPTRVVTNYNSAHDQNSNLLIEYFRNEFGELESNKSEMIWNFHCWVESWMTRPDLQPGYEGWQAIDPTPQEKSEGTYCCGPVSVRAIKEGDLSTKYDAPFVFAEVNADVVDWIRQEDGSVLKSINRSLVVGQKISTKSVGRDDREDITHTYKYPEGSPEEREVFTKANHLNKLAEKEETGVAMRIRVGDSMSMGNDFDVFAHIGNDTSETRECRLLLCARTVSYNGVLGPECGTEDINLTLDPYSENSIPLRILYEKYSGCLTESNLIKVRGLLIEPAANSYLLAERDLYLENPEIKIRVLGEPKQNRKLVAEVSLKNPLSDPLYDCIFTVEGAGLTKEQKSVEVSDPVPAGDLVKARVDLFPTDIGLHKLVVNFQCDKLKSVKGYRNVIIGPA
binds: [5] | [2]
